The target in assay [1] is T1, GFP-dynamin 2 (full-length) (UniProt P39052).
T1 sequence: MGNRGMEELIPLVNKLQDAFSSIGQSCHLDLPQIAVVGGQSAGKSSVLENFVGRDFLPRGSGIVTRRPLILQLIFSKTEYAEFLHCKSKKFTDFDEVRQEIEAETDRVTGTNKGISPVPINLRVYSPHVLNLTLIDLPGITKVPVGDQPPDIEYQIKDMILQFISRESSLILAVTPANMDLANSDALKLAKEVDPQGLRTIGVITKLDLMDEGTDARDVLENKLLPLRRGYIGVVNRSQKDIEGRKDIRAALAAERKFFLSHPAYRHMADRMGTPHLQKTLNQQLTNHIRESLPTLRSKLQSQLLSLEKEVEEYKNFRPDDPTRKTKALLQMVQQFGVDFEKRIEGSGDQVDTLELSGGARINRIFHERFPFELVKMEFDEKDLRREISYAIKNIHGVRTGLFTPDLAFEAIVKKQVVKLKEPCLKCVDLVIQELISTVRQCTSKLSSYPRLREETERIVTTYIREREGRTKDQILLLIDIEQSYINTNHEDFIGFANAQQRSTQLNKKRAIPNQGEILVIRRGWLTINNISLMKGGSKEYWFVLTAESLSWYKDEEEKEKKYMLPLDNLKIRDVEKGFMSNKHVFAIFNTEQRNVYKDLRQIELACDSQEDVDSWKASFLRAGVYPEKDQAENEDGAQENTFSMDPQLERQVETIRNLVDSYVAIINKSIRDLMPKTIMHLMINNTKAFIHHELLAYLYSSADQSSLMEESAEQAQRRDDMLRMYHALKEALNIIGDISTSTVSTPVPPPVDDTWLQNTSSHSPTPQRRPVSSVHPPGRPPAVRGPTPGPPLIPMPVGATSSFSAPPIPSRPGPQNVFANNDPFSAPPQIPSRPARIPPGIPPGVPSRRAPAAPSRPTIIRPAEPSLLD
Nature of the assay: co-IP; GFP-trap pulldown: extracts of cotransfected HEK293 cells in lysis buffer incubated with 10 µl GFP-trap agarose beads, Western blot. Background: Immunoblotting shows a protein as a band on a membrane.

Amino acid sequences for entries named in this document (tags omitted). A change or cut given only in a name is not applied to a line headed by its entry. Chains listed by the source or under a name are the forms on record and can include a tag or linker. Residues count along the entry.
UniProt Q9EP80: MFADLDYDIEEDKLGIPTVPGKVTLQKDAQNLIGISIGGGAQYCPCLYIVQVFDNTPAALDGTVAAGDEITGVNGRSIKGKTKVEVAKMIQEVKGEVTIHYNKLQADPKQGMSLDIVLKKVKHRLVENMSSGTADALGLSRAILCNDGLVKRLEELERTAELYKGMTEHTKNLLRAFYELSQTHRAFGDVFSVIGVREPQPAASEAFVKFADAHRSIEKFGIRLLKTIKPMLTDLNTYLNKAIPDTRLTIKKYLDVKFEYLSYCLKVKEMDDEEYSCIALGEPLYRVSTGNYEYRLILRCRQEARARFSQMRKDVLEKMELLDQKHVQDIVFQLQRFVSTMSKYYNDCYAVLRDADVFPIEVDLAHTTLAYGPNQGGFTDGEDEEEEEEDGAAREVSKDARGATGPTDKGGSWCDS
GST-DDAA-PICK1 (Q9EP80, form named): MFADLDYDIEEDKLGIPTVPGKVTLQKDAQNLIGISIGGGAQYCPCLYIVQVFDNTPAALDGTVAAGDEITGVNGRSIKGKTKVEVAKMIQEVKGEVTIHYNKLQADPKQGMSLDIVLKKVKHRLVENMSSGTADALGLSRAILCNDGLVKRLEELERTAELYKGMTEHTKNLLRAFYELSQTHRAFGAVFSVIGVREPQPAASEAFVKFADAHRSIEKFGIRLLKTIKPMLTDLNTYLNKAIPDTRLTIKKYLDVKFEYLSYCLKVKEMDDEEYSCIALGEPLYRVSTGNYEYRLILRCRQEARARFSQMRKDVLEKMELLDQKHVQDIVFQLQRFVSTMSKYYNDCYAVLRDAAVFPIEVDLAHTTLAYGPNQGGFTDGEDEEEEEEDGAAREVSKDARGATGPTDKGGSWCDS
UniProt P19491, residues 22-883: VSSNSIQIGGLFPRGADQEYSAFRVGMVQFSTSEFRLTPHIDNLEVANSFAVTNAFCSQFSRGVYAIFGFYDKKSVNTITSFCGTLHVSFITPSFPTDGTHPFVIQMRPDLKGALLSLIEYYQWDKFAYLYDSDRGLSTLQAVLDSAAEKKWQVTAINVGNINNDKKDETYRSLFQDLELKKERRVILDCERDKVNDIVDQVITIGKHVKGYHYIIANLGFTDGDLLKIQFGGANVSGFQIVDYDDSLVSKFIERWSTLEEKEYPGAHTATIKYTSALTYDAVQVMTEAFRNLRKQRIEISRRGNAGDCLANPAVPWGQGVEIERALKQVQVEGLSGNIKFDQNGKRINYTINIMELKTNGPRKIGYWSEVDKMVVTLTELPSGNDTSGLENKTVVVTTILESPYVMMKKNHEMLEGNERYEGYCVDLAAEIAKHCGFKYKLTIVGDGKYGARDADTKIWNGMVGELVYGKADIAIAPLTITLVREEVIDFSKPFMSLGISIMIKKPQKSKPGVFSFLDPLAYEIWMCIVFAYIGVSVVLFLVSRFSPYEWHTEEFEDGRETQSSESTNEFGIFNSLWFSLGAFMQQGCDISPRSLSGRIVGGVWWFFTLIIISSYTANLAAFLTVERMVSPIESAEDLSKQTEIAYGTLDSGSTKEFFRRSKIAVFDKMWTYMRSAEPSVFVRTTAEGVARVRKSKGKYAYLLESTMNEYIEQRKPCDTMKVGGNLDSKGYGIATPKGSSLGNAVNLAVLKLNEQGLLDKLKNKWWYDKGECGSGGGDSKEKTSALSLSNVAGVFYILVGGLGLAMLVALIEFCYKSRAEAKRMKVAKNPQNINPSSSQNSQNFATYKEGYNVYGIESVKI

The target of assay [2] is T2, GFP-dynamin 2 GTPase effector domain (GED) (UniProt P39052).
T2 sequence: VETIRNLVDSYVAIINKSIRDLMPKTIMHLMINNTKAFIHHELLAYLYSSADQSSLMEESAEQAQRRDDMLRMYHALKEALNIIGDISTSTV
Described as above.

In assay [3] the target is T3, GFP-dynamin 2 pleckstrin homology domain (PH) (UniProt P39052).
T3 sequence: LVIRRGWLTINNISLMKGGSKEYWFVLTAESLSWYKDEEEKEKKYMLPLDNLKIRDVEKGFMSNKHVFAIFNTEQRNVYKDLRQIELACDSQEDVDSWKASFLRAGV
Described as above.

The target in another assay is GST-D189A-PICK1 (UniProt Q9EP80). As to the kind of experiment: pull-down; GST, GST-PICK1 or mutants immobilised on glutathione agarose, incubated at 4°C with neuronal extracts in lysis buffer, Western blot; only the target purified.
Another assay addresses GST-D356A-PICK1 (UniProt Q9EP80). Described as above.
The target of another assay is GST-DDAA-PICK1 (UniProt Q9EP80). The description is as above.
Assay [4] has as its target GST-PICK1 (wild type) (UniProt Q9EP80). Described as above.
The target in assay [5] is PICK1 (endogenous, cortical neurons) (rat (endogenous in cortical neurons)) (UniProt Q9EP80). As to the kind of experiment: co-IP; extracts of cortical neuronal cultures in lysis buffer (20 mM Tris-HCl pH 7.5, 150 mM NaCl, 0.5% Triton X-100), 5 µg anti-PICK1 or control IgG plus protein G-Sepharose, Western blot; basal, at time points after 3 min NMDA, with cyclosporin A or FK506, with PACSIN/syndapin knock-down.

For assay [6] the target is unchanged. The description is as above. The source holds these as a separate data set.
The next assay concerns the target GFP-PICK1 (HEK293) (UniProt Q9EP80). As to the kind of experiment: co-IP; GFP-trap pulldown: extracts of cotransfected HEK293 cells in lysis buffer incubated with 10 µl GFP-trap agarose beads, Western blot.
Assay [7] addresses GST-PICK1 (wild type) (UniProt Q9EP80). Nature of the assay: pull-down; GST or GST fusion immobilised on glutathione agarose, incubated at 4°C with purified protein in direct binding buffer (20 mM Tris-HCl, 150 mM NaCl, 5 mM imidazole, 2 mM MgCl2, 1% Triton X-100, 1 mM DTT), Western blot; both purified.
For another assay, the target named is HA-dynamin 2 (UniProt P39052). Nature of the assay: co-sedimentation; dynamin polymerization: 0.2 µM purified dynamin in sedimentation buffer at room temperature for 30 min with increasing amounts of His-tagged proteins, 15 min at 20,000 g at 4°C, pellet and supernatant by Western blot; both purified.

Read-outs that look alike come from different tables or passages of the source. Results are given in words; binding and its absence hold for the method and conditions named. For some assays here: Binding seen in cells or lysates may run through a third protein. Some entries that bind do so weakly or less than the wild type. For some assays here: Where a sequence is shown, tags or fusion partners need not be part of it.

As for Flag-PICK1 (from UniProt Q9EP80 1-416), the binding entry in [1] is given as “binds”; in assay [2] it was “no binding”; in [3] it was “no binding”.
Turning to “GluA2 (endogenous, neurons) (from UniProt P19491 22-883) (receptor)”, the binding entry (with GST-D189A-PICK1; with GST-D356A-PICK1; in the assay with GST-DDAA-PICK1; with GST-PICK1 (wild type) [4]; in assay [5]) was “binds” throughout.

B1: dynamin 1 (endogenous, cortical neurons) (protein, UniProt P21575 1-864)
chain: MGNRGMEDLIPLVNRLQDAFSAIGQNADLDLPQIAVVGGQSAGKSSVLENFVGRDFLPRGSGIVTRRPLVLQLVNSTTEYAEFLHCKGKKFTDFEEVRLEIEAETDRVTGTNKGISPVPINLRVYSPHVLNLTLVDLPGMTKVPVGDQPPDIEFQIRDMLMQFVTKENCLILAVSPANSDLANSDALKIAKEVDPQGQRTIGVITKLDLMDEGTDARDVLENKLLPLRRGYIGVVNRSQKDIDGKKDITAALAAERKFFLSHPSYRHLADRMGTPYLQKVLNQQLTNHIRDTLPGLRNKLQSQLLSIEKEVDEYKNFRPDDPARKTKALLQMVQQFAVDFEKRIEGSGDQIDTYELSGGARINRIFHERFPFELVKMEFDEKELRREISYAIKNIHGIRTGLFTPDLAFEATVKKQVQKLKEPSIKCVDMVVSELTSTIRKCSEKLQQYPRLREEMERIVTTHIREREGRTKEQVMLLIDIELAYMNTNHEDFIGFANAQQRSNQMNKKKTSGNQDEILVIRKGWLTINNIGIMKGGSKEYWFVLTAENLSWYKDDEEKEKKYMLSVDNLKLRDVEKGFMSSKHIFALFNTEQRNVYKDYRQLELACETQEEVDSWKASFLRAGVYPERVGDKEKASETEENGSDSFMHSMDPQLERQVETIRNLVDSYMAIVNKTVRDLMPKTIMHLMINNTKEFIFSELLANLYSCGDQNTLMEESAEQAQRRDEMLRMYHALKEALSIIGDINTTTVSTPMPPPVDDSWLQVQSVPAGRRSPTSSPTPQRRAPAVPPARPGSRGPAPGPPPAGSALGGAPPVPSRPGASPDPFGPPPQVPSRPNRAPPGVPSRSGQASPSRPESPRPPFDL
For the molecule B1, the binding result in assay [6] was “binds”.

B2: dynamin 3 (endogenous, cortical neurons) (protein, UniProt Q08877 1-869)
chain: MGNREMEELIPLVNRLQDAFSALGQSCLLELPQIAVVGGQSAGKSSVLENFVGRDFLPRGSGIVTRRPLVLQLVTSKAEYAEFLHCKGKKFTDFDEVRHEIEAETDRVTGMNKGISSVPINLRVYSPHVLNLTLIDLPGITKVPVGDQPPDIEYQIRDMIMQFITRENCLILAVTPANTDLANSDALKLAKEVDPQGLRTIGVITKLDLMDEGTDARDVLENKLLPLRRGYVGVVNRSQKDIDGKKDIKAAMLAERKFFLSHPAYRHIADRMGTPHLQKVLNQQLTNHIRDTLPNFRNKLQGQLLSIEHEVEAFKNFKPEDPTRKTKALLQMVQQFAVDFEKRIEGSGDQVDTLELSGGAKINRIFHERFPFEIVKMEFNEKELRREISYAIKNIHGIRTGLFTPDMAFEAIVKKQIVKLKGPSLKSVDLVMQELINTVKKCTKRLANFPRLCEETERIVANHIREREGKTKDQVLLLIDIQVSYINTNHEDFIGFANAQQRSSQVHKKSTIGNQGTNLPPSRQIVIRKGWLTVSNIGIMKGGSKGYWFVLTAESLSWYKDDEEKEKKYMLPLDNLKVRDVEKGFMSSKHVFALFNTEQRNVYKDYRSLELACDSQEDVDSWKASLLRAGVYPDKSFTENDENGQAENFSMDPQLERQVETIRNLVDSYMSIINKCIRDLIPKTIMHLMINNVKDFINSELLAQLYSSEDQNTLMEESVEQAQRRDEMLRMYQALKEALAIIGDINTVTVSTPAPPPVDDSWLQHSRRSPPPSPTTQRRLTLSAPLPRPASSRGPAPAIPSPGPHSGAPPVPFRPGPLPPFPNSSDSYGAPPQVPSRPTRAPPSVPSRRPPPSPTRPTIIRPLESSLLD
Turning to B2, the binding entry in assay [6] was “binds”.

B3: HA-dynamin 2 (protein, UniProt P39052 1-870)
chain: T1 sequence
B3: the binding result in the assay with GFP-PICK1 (HEK293), with GST-PICK1 (wild type) [7] and in the assay with HA-dynamin 2 was “binds” throughout.

B4: dynamin 2 (endogenous, cortical neurons) (protein, UniProt P39052 1-870)
chain: T1 sequence
As to B4, the binding result in assay [6] is reported as “binds”.

Source of the values: PMC5626541.
